In publication PMC9699620:
No constants are given. Whether binding was seen depends on the method and setting. In cells and extracts the contact can be indirect. Some binding calls cover weakened binding; strength is not graded here.

By UniProt entry, the sequences of proteins in these tests, tags left out.
UniProt Q9Y3Z3: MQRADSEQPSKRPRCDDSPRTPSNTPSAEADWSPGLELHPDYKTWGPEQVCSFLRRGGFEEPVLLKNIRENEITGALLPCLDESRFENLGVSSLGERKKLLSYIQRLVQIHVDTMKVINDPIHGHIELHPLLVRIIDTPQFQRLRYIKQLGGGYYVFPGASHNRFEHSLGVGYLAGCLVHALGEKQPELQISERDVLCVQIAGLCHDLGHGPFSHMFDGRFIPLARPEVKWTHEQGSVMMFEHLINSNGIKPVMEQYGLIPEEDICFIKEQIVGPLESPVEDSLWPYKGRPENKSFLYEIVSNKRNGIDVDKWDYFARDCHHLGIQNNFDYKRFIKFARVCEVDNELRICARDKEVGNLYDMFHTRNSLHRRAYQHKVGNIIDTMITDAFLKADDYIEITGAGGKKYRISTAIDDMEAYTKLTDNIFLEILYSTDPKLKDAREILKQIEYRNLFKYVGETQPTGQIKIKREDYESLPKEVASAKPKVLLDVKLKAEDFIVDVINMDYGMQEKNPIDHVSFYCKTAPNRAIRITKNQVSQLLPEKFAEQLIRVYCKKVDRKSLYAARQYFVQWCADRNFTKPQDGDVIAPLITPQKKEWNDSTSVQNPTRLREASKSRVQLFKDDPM
UniProt O43150: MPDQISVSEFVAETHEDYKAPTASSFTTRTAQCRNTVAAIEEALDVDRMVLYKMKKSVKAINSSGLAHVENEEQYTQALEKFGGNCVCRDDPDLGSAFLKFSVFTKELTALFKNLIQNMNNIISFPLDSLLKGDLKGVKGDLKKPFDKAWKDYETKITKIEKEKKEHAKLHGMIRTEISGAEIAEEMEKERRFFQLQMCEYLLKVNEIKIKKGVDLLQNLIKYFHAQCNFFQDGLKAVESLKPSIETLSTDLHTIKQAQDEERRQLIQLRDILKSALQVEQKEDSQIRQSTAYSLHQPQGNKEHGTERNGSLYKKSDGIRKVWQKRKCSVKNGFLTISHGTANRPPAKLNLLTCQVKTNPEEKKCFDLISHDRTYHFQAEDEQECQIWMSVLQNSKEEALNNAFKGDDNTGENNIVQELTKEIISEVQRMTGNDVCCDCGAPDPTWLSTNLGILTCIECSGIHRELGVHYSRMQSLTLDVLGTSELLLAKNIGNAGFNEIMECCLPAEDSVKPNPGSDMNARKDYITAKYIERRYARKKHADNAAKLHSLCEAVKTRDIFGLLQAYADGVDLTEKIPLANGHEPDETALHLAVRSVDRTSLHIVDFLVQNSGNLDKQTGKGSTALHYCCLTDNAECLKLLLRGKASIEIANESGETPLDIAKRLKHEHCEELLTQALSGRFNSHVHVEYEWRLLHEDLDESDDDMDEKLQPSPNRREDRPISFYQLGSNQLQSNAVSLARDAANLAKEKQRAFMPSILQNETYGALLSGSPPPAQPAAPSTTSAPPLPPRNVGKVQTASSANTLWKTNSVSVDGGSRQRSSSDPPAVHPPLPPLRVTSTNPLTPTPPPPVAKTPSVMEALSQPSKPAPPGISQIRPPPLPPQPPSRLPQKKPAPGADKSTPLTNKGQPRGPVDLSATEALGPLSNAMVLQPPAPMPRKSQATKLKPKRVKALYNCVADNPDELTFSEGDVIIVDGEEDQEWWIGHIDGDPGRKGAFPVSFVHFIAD

Key:
[1] = biological target: SAM and HD domain-containing deoxynucleoside triphosphate triphosphohydrolase 1 (SAMHD1) (human (endogenous in THP-1)) (UniProt Q9Y3Z3); assay: co-IP; endogenous proteins in lysate (1 mg total protein) of 1,25(OH)2D3-stimulated THP-1 M0 macrophages; IP with anti-ASAP2 or anti-SAMHD1 antibody (2 µg) overnight at 4 °C, protein A/G beads, Western blot; IgG as negative control
[2] = biological target: ArfGAP with SH3 Domain, Ankyrin Repeat and PH Domain 2 (ASAP2) (human (endogenous in THP-1)) (UniProt O43150); assay: as above

Substance: ArfGAP with SH3 Domain, Ankyrin Repeat and PH Domain 2 (ASAP2) (from UniProt O43150 1-1006)
- binding [1]: binds

Substance: SAM and HD domain-containing deoxynucleoside triphosphate triphosphohydrolase 1 (SAMHD1) (from UniProt Q9Y3Z3 1-626)
- binding [2]: binds
